Results are given in words; binding and its absence hold for the method and conditions named. In cells and extracts the contact can be indirect. A result given as binding can be weak or reduced; the word gives no strength.

Chains of the proteins cited; added tags and fusions are not shown. Lines headed by an entry give the natural chain unless they say otherwise; changes in a name come on top. Residues count along the entry.
UniProt P42224: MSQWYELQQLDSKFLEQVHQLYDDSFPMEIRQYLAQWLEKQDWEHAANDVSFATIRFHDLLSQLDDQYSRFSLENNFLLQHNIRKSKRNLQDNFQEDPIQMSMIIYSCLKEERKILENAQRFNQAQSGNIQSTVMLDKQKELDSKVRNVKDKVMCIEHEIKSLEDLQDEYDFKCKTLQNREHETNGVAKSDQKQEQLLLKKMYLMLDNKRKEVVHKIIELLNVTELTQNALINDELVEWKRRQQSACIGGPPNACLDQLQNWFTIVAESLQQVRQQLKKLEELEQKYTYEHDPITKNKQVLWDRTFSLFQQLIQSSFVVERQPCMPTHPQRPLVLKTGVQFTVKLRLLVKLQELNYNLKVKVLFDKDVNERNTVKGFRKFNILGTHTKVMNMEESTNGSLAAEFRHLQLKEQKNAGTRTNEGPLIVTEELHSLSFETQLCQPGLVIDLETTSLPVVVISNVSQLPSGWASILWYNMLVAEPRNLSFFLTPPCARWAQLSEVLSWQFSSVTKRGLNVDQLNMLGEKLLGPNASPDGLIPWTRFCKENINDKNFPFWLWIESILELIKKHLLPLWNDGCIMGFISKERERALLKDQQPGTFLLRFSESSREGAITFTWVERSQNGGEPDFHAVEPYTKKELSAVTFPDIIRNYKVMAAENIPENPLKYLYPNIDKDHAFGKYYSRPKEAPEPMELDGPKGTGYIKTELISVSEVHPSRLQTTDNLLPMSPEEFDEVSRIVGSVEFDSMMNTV
UniProt Q9NZC2, residues 19-230: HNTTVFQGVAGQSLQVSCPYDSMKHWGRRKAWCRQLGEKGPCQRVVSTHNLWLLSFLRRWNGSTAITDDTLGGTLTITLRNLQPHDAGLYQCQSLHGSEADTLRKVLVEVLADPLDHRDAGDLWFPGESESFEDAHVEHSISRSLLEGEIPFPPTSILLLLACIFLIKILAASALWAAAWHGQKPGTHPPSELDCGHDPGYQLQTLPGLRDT
UniProt P19474: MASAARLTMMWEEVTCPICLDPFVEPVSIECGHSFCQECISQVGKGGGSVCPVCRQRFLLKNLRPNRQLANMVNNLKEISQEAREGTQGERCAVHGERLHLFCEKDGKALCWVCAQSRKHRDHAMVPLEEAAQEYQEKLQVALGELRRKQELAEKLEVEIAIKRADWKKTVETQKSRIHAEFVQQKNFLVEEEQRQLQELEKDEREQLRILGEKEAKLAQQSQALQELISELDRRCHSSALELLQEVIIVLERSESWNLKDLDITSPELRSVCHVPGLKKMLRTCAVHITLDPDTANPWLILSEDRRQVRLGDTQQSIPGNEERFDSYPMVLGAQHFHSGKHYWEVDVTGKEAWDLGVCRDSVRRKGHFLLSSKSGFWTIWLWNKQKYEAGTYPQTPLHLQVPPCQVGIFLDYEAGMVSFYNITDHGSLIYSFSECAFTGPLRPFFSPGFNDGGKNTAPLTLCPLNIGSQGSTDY

Test [1] has as its target STAT1 truncation mutant, SH2 domain (577-683 aa) (UniProt P42224). Briefly: co-IP; HEK293T cells transfected with tagged TREM2, TRIM21, STAT1 (full length or truncation mutants) or SYK; increasing doses of MYC-TRIM21 in the presence of MG132 in one panel.
The target in the next test is GST-TREM2 (UniProt Q9NZC2). Briefly: pull-down; GST fusion proteins from E. coli BL21 (DE3), Pierce GST Protein Interaction Pull-Down Kit; the SYK-STAT1 pull-down with or without TREM2.
The target of another test is Flag-TREM2 (UniProt Q9NZC2). Kind of test: co-IP; HEK293T cells transfected with tagged TREM2, TRIM21, STAT1 (full length or truncation mutants) or SYK; increasing doses of MYC-TRIM21 in the presence of MG132 in one panel.

Consider “Myc-TRIM21 (from UniProt P19474 1-475) (enzyme)”, for which the binding result in test [1] is on record as “binds”.
On to “STAT1 (partner of GST-TREM2 in the GST pull-down) (from UniProt P42224 1-750)”, for which, in the test with GST-TREM2, the binding result is on record as “binds”.
On to “STAT1 truncation mutant, SH2 domain (577-683 aa) (from UniProt P42224) (domain or fragment)”, for which the binding entry with Flag-TREM2 is reported as “binds”.

Values taken from paper PMC12627648.
